Experimental data from PubChem BioAssay AID2685 (National Center for Advancing Translational Sciences (NCATS), 2010).
This is one part of the list. Further columns of the screen follow, without active or inactive calls. The list favours compounds with an active or inconclusive main result. Words in brackets tell the shape of the fitted curve; partial curves, single points and poor fits give uncertain potencies.

Assay: qHTS Assay for Lipid Storage Modulators in Drosophila S3 Cells;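 as to cell number change: cells counted by Cell Tracker Red CMTPX staining in the red channel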
Conditions: BODIPY lipid droplet fluorescence, 18-24 h; for cell number change: measured here: cell count max response, cells fed with added oleic acid
Method in brief: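 Laser-scanning cytometry quantifies lipid droplet accumulation (500–530 nm total intensity; droplet/cell object ratio) in oleic acid-fed (400 uM added) Drosophila S3 cells treated with a concentration series. 20 uM Triacsin C defined 100% inhibition.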

[1] = measured here: lipid fluorescence (Fed channel) AC50, cells fed with added oleic acid
[2] = measured here: cell number channel AC50, cells fed with added oleic acid

| SMILES | cell number change [%] | AC50 [1] | AC50 [2] |
| --- | --- | --- | --- |
| CCOc1ccc(C(=O)NCc2ccccc2)cc1Br | 8.12 | – | – |
| Cc1cccc(OCC(O)Cn2c(NCCCOC(C)C)nc3c2c(=O)[nH]c(=O)n3C)c1 (stereo unspecified) | 7.62 | 29.1 µM [rising, single point] | – |
| COc1ccccc1C(=O)OCC(=O)Nc1ccc(OC(F)F)cc1 | 30.6 | 1.16 µM [rising, full curve] | 7.31 µM [rising, partial curve, poor fit] |
| Cc1ccc(-c2cc(C(F)F)n3ncc(C(=O)NCc4ccco4)c3n2)cc1 | – | – | 2.31 µM [rising, partial curve] |
| CC(C)(C)[C@@H]1CCC(=O)N(CC[C@H](N=[N+]=[N-])c2ccccc2)CC1 | -13.2 | 23.1 µM [falling, single point] | – |
| Nc1nc(Cl)c(C=O)c(N2CCCCC2)n1 | -19.3 | 0.092 µM [falling, full curve, poor fit] | – |
| Cc1ccc(CN(C)C(=O)c2c(C)nn(-c3ccccc3)c2C)cc1 | 50.4 | 6.51 µM [rising, single point] | 5.17 µM [rising, partial curve, poor fit] |
| C/C(=N\NC(=O)c1cccs1)C(C)(C)C | 63.6 | 29.1 µM [rising, partial curve] | – |
| COc1cccc(-c2nnc(SCC(=O)OC(C)C)n2N)c1 | -3.65 | – | – |
| O=C1CCC(C(=O)OCC(=O)N2N=C3/C(=C/c4ccccc4)CCCC3C2c2ccccc2)N1 (stereo unspecified) | 9.16 | – | – |
| CCc1nn(C(C)C(=O)NC(C)CCc2ccco2)c(=O)c2cc3occc3n12 (stereo unspecified) | -5.32 | 9.2 µM [falling, partial curve, poor fit] | – |
| COc1ccc(-c2nn(-c3ccccc3)cc2/C=N/Nc2ccccn2)cc1OC | 0.344 | – | 3.26 µM [rising, single point] |
| COc1ccc(NC(=S)N2C3CCC2CC(NC(=O)NC24CC5CC(CC(C5)C2)C4)C3)c(OC)c1 (stereo unspecified) | 45.9 | 14.6 µM [rising, partial curve] | 13 µM [rising, single point] |
| Nc1nc(-c2ccccc2)c(N=Nc2ccccc2Cl)s1 | -46.7 | 7.31 µM [falling, partial curve] | 5.17 µM [falling, full curve] |
| CCc1cccc2c(SCC(=O)NCC3CCCO3)nc(-c3ccc(F)cc3)nc12 (stereo unspecified) | – | 0.13 µM [rising, full curve, poor fit] | – |
| CCc1[nH]nc(C(=O)N2CCCC(C(=O)c3cccc(C(F)(F)F)c3)C2)c1C (stereo unspecified) | -24.2 | 29.1 µM [falling, single point] | – |

A stretch of the results above, as a working copy:

| SMILES | cell number change [%] | AC50 [1] | AC50 [2] |
| --- | --- | --- | --- |
| O=C1CCC(C(=O)OCC(=O)N2N=C3/C(=C/c4ccccc4)CCCC3C2c2ccccc2)N1 (stereo unspecified) | 9.16 | – | – |
| CCc1nn(C(C)C(=O)NC(C)CCc2ccco2)c(=O)c2cc3occc3n12 (stereo unspecified) | -5.32 | 9.2 µM [falling, partial curve, poor fit] | – |
| COc1ccc(-c2nn(-c3ccccc3)cc2/C=N/Nc2ccccn2)cc1OC | 0.344 | – | 3.26 µM [rising, single point] |
| COc1ccc(NC(=S)N2C3CCC2CC(NC(=O)NC24CC5CC(CC(C5)C2)C4)C3)c(OC)c1 (stereo unspecified) | 45.9 | 14.6 µM [rising, partial curve] | 13 µM [rising, single point] |
| Nc1nc(-c2ccccc2)c(N=Nc2ccccc2Cl)s1 | -46.7 | 7.31 µM [falling, partial curve] | 5.17 µM [falling, full curve] |
